Measurements reported in PubChem BioAssay AID504834 (National Center for Advancing Translational Sciences (NCATS), 2011).
The whole screen tested about 320,000 compounds, of which about 22,000 (6.9%) were called active. Inconclusive means that the source gave no clear call. Such entries were picked first, then a sample of the others. The call rests on the fitted dose curve; in most records, active means well fitted inhibition curve with a large enough effect; inconclusive means small, poorly fitted or top-dose-only effect, or another doubt; inactive means no such curve, though single readings can be large or run the other way. A potency beside an inconclusive call is a rough fit, not a confirmed value.

Assay: Primary qHTS for delayed death inhibitors of the malarial parasite plastid, 96 hour incubation
Details: P. falciparum luciferase reporter growth; series mostly up to 28.7 µM
Procedure, shortened: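 Infected RBCs, 2% Hct / 0.05% parasitemia final; luciferase-reporter P. falciparum; cpd 96 h, 37 C, 5% CO2; luciferase detection reagent; luminescence.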
Potency means the concentration at half of the fitted maximal effect.

| Structure (SMILES) | Potency |
| --- | --- |
| Cc1ccc(C(=O)N2CCCC(C(=O)c3ccc(Oc4ccccc4)cc3)C2)cn1 (stereo not drawn) | active: 8.28 µM |
| CCCCN(C(=O)c1ccc(-c2ccc(Cl)cc2)o1)c1c(N)n(CCCC)c(=O)[nH]c1=O | inconclusive: 13.1 µM [inhibitor, single point] |
| CC(C)Oc1ccc(Cc2n[nH]c(=S)n2Cc2ccccc2)cc1Cl | inconclusive: 1.85 µM [inhibitor, partial curve, poor fit] |
| CCOC(=O)C(N)CSC1CC(=O)N(c2ccc(OCC)cc2)C1=O (stereo not drawn) | inconclusive: 18.5 µM [inhibitor, single point] |
| COc1ccc(C(=O)/C=C(\C)Nc2ccc3c(c2)OCO3)cc1 | inactive |
| COc1ccc(-n2cnc3cc([N+](=O)[O-])ccc32)cc1 | inconclusive: 11.7 µM [inhibitor, partial curve, poor fit] |
| CCN(CC)CCN(Cc1cc2ccc(C)cc2[nH]c1=O)C(=O)Nc1ccc(Cl)cc1 | inconclusive: 13.1 µM [inhibitor, single point] |
| Cn1cnc([N+](=O)[O-])c1Oc1ccccc1 | inconclusive: 10.4 µM [inhibitor, partial curve, poor fit] |
| O=C(Nc1ccccc1)N1CCN(Cc2ccc3c(c2)OCO3)CC1 | inconclusive: 16.5 µM [inhibitor, single point] |
| Cc1c(C)c2ccc(OCC(=O)NC(Cc3ccc(Cl)cc3)C(=O)O)cc2oc1=O (stereo not drawn) | inconclusive: 3.29 µM [inhibitor, single point] |
| CN(C)CCCNC(=O)CC(c1ccc(F)cc1)c1ccco1 (stereo not drawn) | inconclusive: 16.5 µM [inhibitor, single point] |
| CC(C(=O)O)c1ccc2c(c1)Cc1cccnc1O2 (stereo not drawn) | active: 1.51 µM |
| CC(=O)c1sc(NC(=O)c2cc(-c3ccccc3)nn2-c2ccccc2)nc1C | inactive |
| COc1ccc(NC(=O)CC2SC(=NCC3CCCO3)NC2=O)c([N+](=O)[O-])c1 (stereo not drawn) | inconclusive: 18.5 µM [inhibitor, single point] |
| Cc1cc(NC(=O)CSc2nc(C(C)(C)C)nc3ccccc23)no1 | inconclusive: 9.28 µM [inhibitor, single point] |
| COc1ccc(OC)c(C2CC(=O)N3CN(c4ccc(C)c(Cl)c4)CSC3=C2C#N)c1 (stereo not drawn) | inconclusive: 3.7 µM [inhibitor, single point] |
| OC1CCCN(C(=S)NCc2ccccc2)C1 (stereo not drawn) | active: 3.29 µM |
| C[C@H]1COc2c(C3(N)CC3)c(F)cc3c(=O)c(C(=O)O)cn1c23 | inconclusive: 7.57 µM [inhibitor, partial curve] |

A run of entries of the results above, for reference:

| Structure (SMILES) | Potency |
| --- | --- |
| CN(C)CCCNC(=O)CC(c1ccc(F)cc1)c1ccco1 (stereo not drawn) | inconclusive: 16.5 µM [inhibitor, single point] |
| CC(C(=O)O)c1ccc2c(c1)Cc1cccnc1O2 (stereo not drawn) | active: 1.51 µM |
| CC(=O)c1sc(NC(=O)c2cc(-c3ccccc3)nn2-c2ccccc2)nc1C | inactive |
| COc1ccc(NC(=O)CC2SC(=NCC3CCCO3)NC2=O)c([N+](=O)[O-])c1 (stereo not drawn) | inconclusive: 18.5 µM [inhibitor, single point] |
| Cc1cc(NC(=O)CSc2nc(C(C)(C)C)nc3ccccc23)no1 | inconclusive: 9.28 µM [inhibitor, single point] |
